Results taken from publication PMC10163288.
The other results are listed elsewhere or left out.

B1: il2ra_site2_2erj_normal_mot_HHH_b2_01204_af2_000000056_0001_19_34_H_._HHH_b1_07940_af2_0001_0000100003_0000001_1 (protein)
chain: SSSSDEVEERVKELLEEAREAYKNGDLEEVYKIAVEALHVASKNQDPELQEEVAKVARELSSSSS
B2: il2ra_site2_3nfp_normal_mot_HHH_b1_07556_000000077_0001_42_55_H_._738ccc93aada9afe30a0d8950425dc90_0001_1_0001_0000100012_0000001_0_af2pred_0001_1_af2pred_swapp … (protein)
chain: DVERELSRLARERDDPLVLLALAEIRRLKLNGVPPEEIEEIVEEIIKKAGLPPEIEELLREAVRE
B3: il2ra_site2_2erj_normal_mot_HHH_b1_08609_000000203_0001_43_56_H_._HHH_b1_04650_af2_0001_0000300024_0000001_1 (protein)
chain: SSSSDEELERLFELASRLLEAIHKGDEELIEELLEEIRRIIEEFNSDNAREILERLERHGSSSSS
B4: il2ra_site2_3nfp_sap_21_mot_HHH_b2_01071_af2_000000008_0001_40_57_H_._075aee7f5d3771457fc9f4d4e0efb7bf_0001_0001_0000400016_0000001_0_0001_af2pred_0001_af2pred (protein)
chain: SSSSSDEEEEEVEELLERAKHTEDKHELYALLALAAAIAAENDDEELERLVKKVLQELQNSSSSS
B5: il2ra_site2_2erj_normal_mot_HHH_b1_02139_af2_000000203_0001_1_18_H_._HHH_b2_02853_0001_0000100001_0000001_0 (protein)
chain: SSSSSDAEKAARAIELTIRLLQEKNDEETLEQVVRSALSYAEAFNDEELFEFVEKVLEEISSSSS
B6: il2ra_site1_3nfp_sap_20_mot_HHH_b2_05592_000000000_0001_42_56_H_._8cccc599a7bb59b440cc763c2d19aad1_0001_0001_0000500045_0000001_0_0001 (protein)
chain: SSSSDLQEEVEELLEEAERALKEGNPEEAMKLAERAFEIARKAGDRELAELIWRFIHELISSSSS
B7: il2ra_site1_3nfp_sap_13_mot_HHH_b1_03725_af2_000000070_0001_39_57_H_._HHH_b2_02325_0001_0000200004_0000001_0_0001_af2pred_0001_af2pred_1_swapped (protein)
chain: SSSSSELERRVEELLEEAEELAKRGDLRAARVLQEAYRLVAEAGNKELAEKIFEVQRRLASSSSS
B8: il2ra_site1_1z92_normal_mot_HHH_b1_04604_af2_000000029_0001_42_56_H_._HHH_b1_03981_0001_0000400027_0000001_0_af2pred_0001_af2pred (protein)
chain: SSSSSSSVVELIEELIKLWQNNDPEEFERVAEELEELAKELDNRTAERILENARKAAGSSSSSSS
B9: il2ra_site2_2erj_sap_18_mot_a171aa182591c97700389b7a6f87ba9a_0001_af2_000000020_0001_32_46_H_._HHH_b1_05100_af2_0001_0000100010_0000001_1_0001_af2pred_0001_af2p … (protein)
chain: SSSSSSSKEHVEELLEEAEHVEDSERRRHLLLRALLVALKLGDPELQRLVKEVLERTQSSSSSSS
B10: il2ra_site2_2erj_normal_mot_HHH_b1_06777_000000153_0001_1_20_H_._HHH_b1_06434_0001_0000600032_0000001_0 (protein)
chain: SSSSDEVEELYEELKEALEKGDEELVHKLAWEALRLVHKLDDPELIRLLAELLTEALHFLHSSSS
B11: il2ra_site2_3nfp_normal_mot_HHH_b1_00660_af2_000000090_0001_40_57_H_._HHH_b2_05870_0001_0000700012_0000001_0_af2pred_0001_af2pred (protein)
chain: SSSSSSDEVEELIEQAEELLKKGNPEEAKEALERAALIAAELGDFELFTRIIELREKVVSSSSSS
B12: il2ra_site1_3nfp_normal_mot_eb5a5eebac1e5153f932cc6c3f4b2787_0001_af2_000000065_0001_18_33_H_._31bff7180b20e3ed47766ceefd9934be_0001_af2_0001_0000200025_0000001 … (protein)
chain: DEEKELAELIAEAVEKNDPELLEEVVQELLKKLGDPKEASRLFEELLRKAGLSPEEIYLAMELVV
B13: il2ra_site1_3nfp_sap_13_mot_HHH_b1_08347_000000157_0001_20_36_H_._HHH_b1_04342_0001_0000100004_0000001_0_0001 (protein)
chain: SSSSSSDDLEELMRLMEELFKKGDHEELRRVAEELEELAEERGDPSAEKIARFFLKALSSSSSSS
B14: il2ra_site2_2erj_normal_mot_HHH_b1_03107_000000098_0001_39_52_H_._HHH_b2_04324_0001_0000200029_0000001_0 (protein)
chain: SSSSTEEWERVAELLVQALELARRGNPEEAERLLEEAKEIAEEAGSEALKRYVEYVRRDISSSSS
B15: il2ra_site1_1z92_sap_19_mot_HHH_b1_06225_000000037_0001_38_56_H_._HHH_b2_01707_0001_0000200014_0000001_0_0001 (protein)
chain: SVEERLEEAVRRNDPELVKEILEEALKEEGVNPRMVEDLLRFAHASAGGDPEDLVRMVLAMLERA
B16: il2ra_site2_3nfp_normal_mot_HHH_b2_02437_000000052_0001_42_56_H_._HHH_b2_05093_0001_0000300021_0000001_0_af2pred_0001_af2pred (protein)
chain: SSSSSDEEEVEREVRELLELAEKIPDPRERWAVLLTAYQLALKNKDEELRRLVREVIQELSSSSS
B17: il2ra_site2_3nfp_normal_mot_HHH_b2_04451_000000238_0001_21_37_H_._HHH_b1_07051_af2_0001_0000100005_0000001_0 (protein)
chain: SSSSLEEEVEELLREARELLEEGDKYEALELVARASELAAKNNNEELAREILELFEEIQRLSSSS
B18: il2ra_site2_2erj_sap_14_mot_HHH_b1_05073_000000088_0001_40_56_H_._HHH_b2_01977_0001_0000700014_0000001_0_0001_af2pred_0001_af2pred (protein)
chain: SSSSDRWLELAIEAIERAIKRGDYEFAEIAIEILKIAAEALGDEEALERAEELREEVEKLSSSSS

The binders below were run against il2ra, P01589 (assay: yeast display titration).

Apparent Kd, inactive:
B1 no binding seen
B2 no binding seen
B3 no binding seen
B4 no binding seen
B5 > 502 nM
B6 no binding seen
B7 no binding seen
B8 no binding seen
B9 no binding seen
B10 no binding seen
B11 no binding seen
B12 no binding seen
B13 no binding seen
B14 no binding seen
B15 no binding seen
B16 no binding seen
B17 no binding seen
B18 > 201 nM

Looked up one by one from the entries so far:
Apparent Kd, inactive:
B10 no binding seen
B12 no binding seen
